The list shows a part of the results.
How the values were obtained:
Assay in all cases: glycan array binding signal (z-score within array); higher = stronger binding
Details in all cases: glycan notation: IUPAC condensed, linker removed
[1] = biological target: Gal(b1-4)Glc6S
Method in brief: (§1)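 The binding signal is a Z-score computed within each array and averaged over linkers. Arrays of the same protein sequence at different concentrations or buffers were also averaged together. Data originate from 3228 arrays in the Consortium for Functional Glycomics database, kept only where the protein sequence was available.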

[2] = biological target: Gal(b1-4)GlcNAc
Method in brief: as §1

[3] = biological target: Gal(b1-4)GlcNAc(a1-6)Gal(b1-4)GlcNAc
Method in brief: as §1

[4] = biological target: Gal(b1-4)GlcNAc(b1-2)Man
Method in brief: as §1

[5] = biological target: Gal(b1-4)GlcNAc(b1-2)Man(a1-3)Man(b1-4)GlcNAc(b1-4)GlcNAc
Method in brief: as §1

[6] = biological target: Gal(b1-4)GlcNAc(b1-2)Man(a1-3)[Gal(b1-4)GlcNAc(b1-2)Man(a1-6)]Man(b1-4)GlcNAc(b1-4)GlcNAc
Method in brief: as §1

[7] = biological target: Gal(b1-4)GlcNAc(b1-2)Man(a1-3)[Gal(b1-4)GlcNAc(b1-2)Man(a1-6)]Man(b1-4)GlcNAc(b1-4)[Fuc(a1-6)]GlcNAc
Method in brief: as §1

[8] = biological target: Gal(b1-4)GlcNAc(b1-2)Man(a1-3)[Gal(b1-4)GlcNAc(b1-2)][GlcNAc(b1-4)]Man(b1-4)GlcNAc(b1-4)GlcNAc
Method in brief: as §1

[9] = biological target: Gal(b1-4)GlcNAc(b1-2)Man(a1-3)[GlcNAc(b1-2)Man(a1-6)]Man(b1-4)GlcNAc(b1-4)GlcNAc
Method in brief: as §1

[10] = biological target: Gal(b1-4)GlcNAc(b1-2)Man(a1-3)[Man(a1-6)]Man(b1-4)GlcNAc(b1-4)GlcNAc
Method in brief: as §1

[11] = biological target: Gal(b1-4)GlcNAc(b1-2)Man(a1-6)Man(b1-4)GlcNAc(b1-4)GlcNAc
Method in brief: as §1

[12] = biological target: Gal(b1-4)GlcNAc(b1-2)Man(a1-6)[GlcNAc(b1-2)Man(a1-3)]Man(b1-4)GlcNAc(b1-4)GlcNAc
Method in brief: as §1

[13] = biological target: Gal(b1-4)GlcNAc(b1-2)Man(a1-6)[Man(a1-3)]Man(b1-4)GlcNAc(b1-4)GlcNAc
Method in brief: as §1

[14] = biological target: Gal(b1-4)GlcNAc(b1-2)[Gal(b1-4)GlcNAc(b1-4)]Man(a1-3)[Gal(b1-4)GlcNAc(b1-2)Man(a1-6)]Man(b1-4)GlcNAc(b1-4)GlcNAc
Method in brief: as §1

[15] = biological target: Gal(b1-4)GlcNAc(b1-2)[Gal(b1-4)GlcNAc(b1-4)]Man(a1-3)[Gal(b1-4)GlcNAc(b1-2)[Gal(b1-4)GlcNAc(b1-6)]Man(a1-6)]Man(b1-4)GlcNAc(b1-4)GlcNAc
Method in brief: as §1

[16] = biological target: Gal(b1-4)GlcNAc(b1-2)[Gal(b1-4)GlcNAc(b1-4)]Man(a1-3)[GlcNAc(b1-4)][Gal(b1-4)GlcNAc(b1-2)Man(a1-6)]Man(b1-4)GlcNAc(b1-4)GlcNAc
Method in brief: as §1

[17] = biological target: Gal(b1-4)GlcNAc(b1-2)[Gal(b1-4)GlcNAc(b1-4)]Man(a1-3)[GlcNAc(b1-4)][Gal(b1-4)GlcNAc(b1-2)[Gal(b1-4)GlcNAc(b1-6)]Man(a1-6)]Man(b1-4)GlcNAc(b1-4)GlcNAc
Method in brief: as §1

[18] = biological target: Gal(b1-4)GlcNAc(b1-2)[Gal(b1-4)GlcNAc(b1-4)]Man(a1-3)[GlcNAc(b1-4)][Gal(b1-4)GlcNAc(b1-2)[Gal(b1-4)GlcNAc(b1-6)]Man(a1-6)]Man(b1-4)GlcNAc(b1-4)[Fuc(a1-6)]GlcNAc
Method in brief: as §1

[19] = biological target: Gal(b1-4)GlcNAc(b1-2)[Gal(b1-4)GlcNAc(b1-6)]Man(a1-6)[Gal(b1-4)GlcNAc(b1-2)Man(a1-3)]Man(b1-4)GlcNAc(b1-4)GlcNAc
Method in brief: as §1

[20] = biological target: Gal(b1-4)GlcNAc(b1-2)[Gal(b1-4)GlcNAc(b1-6)]Man(a1-6)[Gal(b1-4)GlcNAc(b1-2)Man(a1-3)]Man(b1-4)GlcNAc(b1-4)[Fuc(a1-6)]GlcNAc
Method in brief: as §1

[21] = biological target: Gal(b1-4)GlcNAc(b1-2)[Gal(b1-4)GlcNAc(b1-6)]Man(a1-6)[GlcNAc(b1-4)][Gal(b1-4)GlcNAc(b1-2)Man(a1-3)]Man(b1-4)GlcNAc(b1-4)GlcNAc
Method in brief: as §1

[22] = biological target: Gal(b1-4)GlcNAc(b1-3)Gal(b1-3)GlcNAc
Method in brief: as §1

[23] = biological target: Gal(b1-4)GlcNAc(b1-3)Gal(b1-4)Glc
Method in brief: as §1

[24] = biological target: Gal(b1-4)GlcNAc(b1-3)Gal(b1-4)GlcNAc
Method in brief: as §1

[25] = biological target: Gal(b1-4)GlcNAc(b1-3)Gal(b1-4)GlcNAc(b1-3)Gal(b1-4)GlcNAc
Method in brief: as §1

[26] = biological target: Gal(b1-4)GlcNAc(b1-3)Gal(b1-4)[Fuc(a1-3)GlcNAc(b1-6)]Gal(b1-4)Glc
Method in brief: as §1

[27] = biological target: Gal(b1-4)GlcNAc(b1-3)Gal(b1-4)[Fuc(a1-3)]GlcNAc(b1-3)Gal(b1-4)[Fuc(a1-3)]GlcNAc
Method in brief: as §1

[28] = biological target: Gal(b1-4)GlcNAc(b1-3)GalNAc
Method in brief: as §1

[29] = biological target: Gal(b1-4)GlcNAc(b1-3)[Gal(b1-4)GlcNAc(b1-6)]Gal(b1-4)GlcNAc
Method in brief: as §1

[30] = biological target: Gal(b1-4)GlcNAc(b1-3)[Gal(b1-4)GlcNAc(b1-6)]GalNAc
Method in brief: as §1

[31] = biological target: Gal(b1-4)GlcNAc(b1-3)[GlcNAc(b1-6)]Gal(b1-4)GlcNAc
Method in brief: as §1

[32] = biological target: Gal(b1-4)GlcNAc(b1-6)Gal(b1-4)GlcNAc
Method in brief: as §1

[33] = biological target: Gal(b1-4)GlcNAc(b1-6)GalNAc
Method in brief: as §1

[34] = biological target: Gal(b1-4)GlcNAc(b1-6)[Gal(b1-3)]GalNAc
Method in brief: as §1

[35] = biological target: Gal(b1-4)GlcNAc6P
Method in brief: as §1

[36] = biological target: Gal(b1-6)Gal
Method in brief: as §1

[37] = biological target: Gal3S(b1-3)GalNAc
Method in brief: as §1

B1: CALR truncated at D342 (Homo sapiens) (protein)
chain: EPAVYFKEQFLDGDGWTSRWIESKHKSDFGKFVLSSGKFYGDEEKDKGLQTSQDARFYALSASFEPFSNKGQTLVVQFTVKHEQNIDCGGGYVKLFPNSLDQTDMHGDSEYNIMFGPDICGPGTKKVHVIFNYKGKNVLINKDIRCKDDEFTHLYTLIVRPDNTYEVKIDNSQVESGSLEDDWDFLPPKKIKDPDASKPEDWDERAKIDDPTDSKPEDWDKPEHIPDPDAKKPEDWDEEMDGEWEPPVIQNPEYKGEWKPRQIDNPDYKGTWIHPEIDNPEYSPDPSIYAYDNFGVLGLDLWQVKSGTIFDNFLITNDEAYAEEFGNETWGVTKAAEKQMKD
Question: Which results are given for B1?
Answer: glycan array binding signal (z-score) [1]: 0.658; glycan array binding signal (z-score) [2]: -0.183; glycan array binding signal (z-score) [3]: -1.37; glycan array binding signal (z-score) [4]: -0.346; glycan array binding signal (z-score) [5]: -0.339; glycan array binding signal (z-score) [6]: 0.293; glycan array binding signal (z-score) [7]: -1.23; glycan array binding signal (z-score) [8]: 0.094; glycan array binding signal (z-score) [9]: -0.415; glycan array binding signal (z-score) [10]: 1.03; glycan array binding signal (z-score) [11]: -0.934; glycan array binding signal (z-score) [12]: 0.351; glycan array binding signal (z-score) [13]: -0.441; glycan array binding signal (z-score) [14]: 1.23; glycan array binding signal (z-score) [15]: 0.293; glycan array binding signal (z-score) [16]: -0.109; glycan array binding signal (z-score) [17]: -0.663; glycan array binding signal (z-score) [18]: -0.864; glycan array binding signal (z-score) [19]: 1.06; glycan array binding signal (z-score) [20]: 0.25; glycan array binding signal (z-score) [21]: -1.22; glycan array binding signal (z-score) [22]: 0.662; glycan array binding signal (z-score) [23]: -0.962; glycan array binding signal (z-score) [24]: -0.977; glycan array binding signal (z-score) [25]: 0.74; glycan array binding signal (z-score) [26]: -2.41; glycan array binding signal (z-score) [27]: -0.365; glycan array binding signal (z-score) [28]: 0.267; glycan array binding signal (z-score) [29]: -0.614; glycan array binding signal (z-score) [30]: -0.3; glycan array binding signal (z-score) [31]: 1.39; glycan array binding signal (z-score) [32]: -0.473; glycan array binding signal (z-score) [33]: 0.227; glycan array binding signal (z-score) [34]: -0.038; glycan array binding signal (z-score) [35]: 0.225; glycan array binding signal (z-score) [36]: 0.132; glycan array binding signal (z-score) [37]: 0.274
